The source of these data is paper PMC4526233.

Amino acid sequences for entries named in this document (tags omitted).
UniProt Q92598: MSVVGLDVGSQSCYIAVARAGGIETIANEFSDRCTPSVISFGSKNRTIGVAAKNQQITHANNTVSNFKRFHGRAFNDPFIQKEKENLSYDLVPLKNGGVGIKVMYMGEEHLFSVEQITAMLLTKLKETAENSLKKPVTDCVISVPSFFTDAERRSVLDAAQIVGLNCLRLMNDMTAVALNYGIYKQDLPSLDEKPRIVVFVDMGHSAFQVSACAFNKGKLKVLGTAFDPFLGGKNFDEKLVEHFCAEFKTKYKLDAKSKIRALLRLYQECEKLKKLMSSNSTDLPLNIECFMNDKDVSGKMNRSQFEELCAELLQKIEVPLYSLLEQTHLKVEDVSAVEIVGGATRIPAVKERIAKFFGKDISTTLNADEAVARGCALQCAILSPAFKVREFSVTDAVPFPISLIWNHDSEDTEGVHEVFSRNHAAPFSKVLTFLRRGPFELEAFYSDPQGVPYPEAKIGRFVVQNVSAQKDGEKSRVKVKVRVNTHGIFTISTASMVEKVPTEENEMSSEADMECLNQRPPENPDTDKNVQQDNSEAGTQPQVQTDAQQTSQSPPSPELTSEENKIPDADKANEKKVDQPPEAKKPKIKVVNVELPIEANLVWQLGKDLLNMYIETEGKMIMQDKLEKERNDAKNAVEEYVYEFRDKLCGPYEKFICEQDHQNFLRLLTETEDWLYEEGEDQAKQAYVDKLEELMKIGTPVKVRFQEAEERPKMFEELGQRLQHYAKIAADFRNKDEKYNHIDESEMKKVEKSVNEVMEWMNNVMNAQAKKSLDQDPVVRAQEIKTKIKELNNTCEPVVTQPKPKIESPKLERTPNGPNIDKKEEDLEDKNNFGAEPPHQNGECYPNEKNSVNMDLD

This assay has as its target T1, 3x-FLAG tagged B14 (B14-3xF) (UniProt Q8TBM8).
T1 sequence: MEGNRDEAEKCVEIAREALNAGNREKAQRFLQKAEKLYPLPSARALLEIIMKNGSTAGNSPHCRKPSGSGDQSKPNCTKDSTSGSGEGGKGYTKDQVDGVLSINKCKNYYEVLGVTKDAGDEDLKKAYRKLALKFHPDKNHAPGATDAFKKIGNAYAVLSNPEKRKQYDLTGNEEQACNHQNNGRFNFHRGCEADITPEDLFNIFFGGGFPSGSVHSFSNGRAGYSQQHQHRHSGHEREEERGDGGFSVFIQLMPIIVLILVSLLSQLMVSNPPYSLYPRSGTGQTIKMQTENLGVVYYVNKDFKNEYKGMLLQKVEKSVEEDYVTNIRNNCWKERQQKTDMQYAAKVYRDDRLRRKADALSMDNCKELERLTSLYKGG
Kind of assay: co-IP.

No constants are given. Whether binding was seen depends on the method and setting. In cells and extracts the contact can be indirect. Some entries that bind do so weakly or less than the wild type. Where a sequence is shown, tags or fusion partners need not be part of it.

Consider “Hsp105 (endogenous, Flp-In 293 T-Rex cells) (from UniProt Q92598 1-858)”, for which the binding entry is given as “binds”.
